From publication PMC2412851 come the findings set out here.

Amino acid sequences for entries named in this document (tags omitted). Residues count along the entry.
UniProt P27467, residues 19-352: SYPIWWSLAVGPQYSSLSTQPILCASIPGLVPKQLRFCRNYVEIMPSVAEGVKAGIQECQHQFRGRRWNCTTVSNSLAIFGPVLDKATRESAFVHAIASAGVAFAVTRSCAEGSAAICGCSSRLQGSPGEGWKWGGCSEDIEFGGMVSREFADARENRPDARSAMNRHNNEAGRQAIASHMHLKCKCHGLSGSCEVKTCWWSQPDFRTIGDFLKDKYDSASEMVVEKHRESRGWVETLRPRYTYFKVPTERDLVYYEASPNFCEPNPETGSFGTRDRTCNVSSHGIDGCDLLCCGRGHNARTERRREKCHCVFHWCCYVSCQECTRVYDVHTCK

The target in this experiment is T1, SFRP-4(HA tagged) (rat) (UniProt Q9JLS4).
T1 sequence: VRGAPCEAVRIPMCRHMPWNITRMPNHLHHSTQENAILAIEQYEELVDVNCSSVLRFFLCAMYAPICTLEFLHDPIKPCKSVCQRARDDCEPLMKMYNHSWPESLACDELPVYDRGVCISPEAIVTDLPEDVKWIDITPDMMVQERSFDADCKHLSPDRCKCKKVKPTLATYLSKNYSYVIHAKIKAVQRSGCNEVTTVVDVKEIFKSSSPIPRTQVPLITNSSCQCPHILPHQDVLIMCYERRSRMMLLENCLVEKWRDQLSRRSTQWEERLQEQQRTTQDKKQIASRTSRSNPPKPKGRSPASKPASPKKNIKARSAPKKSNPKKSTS
Put plainly: co-IP; conditioned medium of HEK293 SFRP-4(HA tagged) cells treated with 5 μl/ml partially-purified Wnt-3a for 4 hours, mixed 1:1 with Immunoprecipitation Buffer (PBS without Ca2+/Mg2+, 0.25% Triton X-100); rabbit anti-HA antibody, 4°C, protein G Sepharose; blot with mouse anti-HA, re-probed with anti-Wnt-3a; only the binder purified.

No constants are given. Whether binding was seen depends on the method and setting. In cells and extracts the contact can be indirect. Some entries that bind do so weakly or less than the wild type. Sequences can lack the tags named with a protein.

As to “Wnt-3a (from UniProt P27467 19-352) (ligand)”, the binding entry is “binds”.
